Laboratory results reported in article doi:10.1101/776864.
These are yes or no findings as the source states them, for the method shown. Some entries that bind do so weakly or less than the wild type.

Target: M2 protein of influenza A/WSN/33 (H1N1), wild type (Influenza A virus A/WSN/33 (H1N1)) (UniProt P05780)
Experiment: non-reducing SDS-PAGE and Western blot

M2 protein of influenza A/WSN/33 (H1N1), wild type (from UniProt P05780 1-97)
binding: binds
